The source of these data is doi:10.1101/2022.03.26.485938.

These are yes or no findings as the source states them, for the method shown. For part of these data: A result given as binding can be weak or reduced; the word gives no strength. For part of these data: Where a sequence is shown, tags or fusion partners need not be part of it.

Assay [1] addresses T1, Clathrin Light Chain (CLC2)-GFP (Arabidopsis thaliana) (UniProt O04209).
T1 sequence: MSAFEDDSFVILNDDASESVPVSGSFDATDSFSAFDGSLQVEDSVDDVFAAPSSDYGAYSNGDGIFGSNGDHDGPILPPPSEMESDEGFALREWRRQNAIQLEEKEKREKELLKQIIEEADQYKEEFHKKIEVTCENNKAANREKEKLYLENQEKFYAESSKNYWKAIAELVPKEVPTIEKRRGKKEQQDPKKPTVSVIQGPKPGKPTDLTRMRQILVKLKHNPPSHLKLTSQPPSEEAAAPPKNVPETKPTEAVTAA
The assay is described as follows: pull-down.

Assay [2] concerns the target binding domain (BD)-Kin7.3 (Arabidopsis thaliana). Description: two-hybrid.

Take “GST-SFH8^ΔIDR (Arabidopsis thaliana) (domain or fragment)”: in assay [1], the binding result is “no binding”.

B1: SPC25 (protein, UniProt Q93VK9 1-315)
chain: MEQISNIAGGDTTKETMASLGLICEKDIHEQRLKIDSFIASPFRRSMNSLVERAQATAQSQVELMNLKADLREAEDELVKVLAVKTRKEARQMGIRDSISATQSRIEVLRRNLQLQKSKKDDSVRIISQQLQALSKSKDNAGKVTEDKADIHEAISWYNHALGFHVEAGHGVKFTFTNIDAKRPTREFSFTVHYGNDIYTLLDSDLQLDYINEMVQELNKTNDLFRFVRLMREQFLKSTLSELPTHSGQLQQETSAISASAPAISFSTDTNMSTPENKRSKVQVNRRQKRGSESPLLAPVSTSATRRSSRFKGKK
Turning to B1, in assay [2], the binding result is “binds”.

B2: PORCINO (protein, UniProt Q9SMR2 1-345)
chain: MEDDGQSSVAETLDPALQKKHHDMLERLSARHQARKSDSPDSSSSSSSTLESTSSFLAKFSDSKRSIESRIAESRLASSSTDSSKLKSDLAEISVAIDNLEKLLAENSYFLPSYEVRSSLKIVSDLKQSLDILSGELVPKKKFSFKSKSTTKKPESKLPEIQKPDVVLPPKLVPVRDSPGLRNKHGETLVKSFEGSSIGEFTLSDLDSCQVKLTGTVNALFLHRLKKCSVYTGPVIGSILIDDVEDCVLVLASHQIRIHCARKSDFYLRVRSRPIIEDSNGVRFAPYCLDYKGIDEDLKTAGLEEETNNWANVDDFRWLRAVQSPNWSLLPEEERVSLLTISGDS
In the case of B2, the binding result in assay [2] is listed as “binds”.
